Data as given in patent US11319551B2, “Methods and compositions for PPO herbicide tolerance in plants” (Monsanto Technology LLC, priority 2015, dated 2022).
Some results were stated once for a whole list of compounds, not compound by compound.

B1: R2N70: microbial HemY protoporphyrinogen oxidase, SEQ ID NO:3 (protein, listed as Bacillus subtilis)
chain: MSDGKKHVVIIGGGITGLAAAFYMEKEIKEKNLPLELTLVEASPRVGGKIQTVKKDGYIIERGPDSFLERKKSAPQLVKDLGLEHLLVNNATGQSYVLVNRTLHPMPKGAVMGIPTKIAPFVSTGLFSLSGKARAAMDFILPASKTKDDQSLGEFFRRRVGDEVVENLIEPLLSGIYAGDIDKLSLMSTFPQFYQTEQKHRSLILGMKKTRPQGSGQQLTAKKQGQFQTLSTGLQTLVEEIEKQLKLTKVYKGTKVTKLSHSGSGYSLELDNGVTLDADSVIVTAPHKAAAGMLSELPAISHLKNMHSTSVANVALGFPEGSVQMEHEGTGFVISRNSDFAITACTWTNKKWPHAAPEGKTLLRAYVGKAGDESIVDLSDNDIINIVLEDLKKVMNINGEPEMTCVTRWHESMPQYHVGHKQRIKELREALASAYPGVYMTGASFEGVGIPDCIDQGKAAVSDALTYLFS
B2: R1N333: microbial HemY PPO, SEQ ID NO:17 in bacterial assay; truncated SEQ ID NO:21 in soybean (protein, listed as Bacillus atrophaeus)
chain: MSDGKKHLVIIGGGITGLASAFYMEKEIREKNLPLSVTLVEASPRVGGKIQTARKDGYIIERGPDSFLERKKSAPELVEDLGLEHLLVNNATGQSYVLVNETLHPMPKGAVMGIPTKIAPFMSTRLFSFSGKARAAMDFVLPASKPKEDQSLGEFFRRRVGDEVVENLIEPLLSGIYAGDIDRLSLMSTFPQFYQTEQKHRSLILGMKKTRPQGSGQQLTAKKQGQFQTLKTGLQTLVEELENQLKLTKVYKGTKVTNISRGEKGCSIALDNGMTLDADAAIVTSPHKSAAGMFPDLPAVSQLKDMHSTSVANVALGFPQEAVQMEHEGTGFVISRNSDFSITACTWTNKKWPHSAPEGKTLLRAYVGKAGDESIVELSDNEIIKIVLEDLKKVMKIKGEPEMTCVTRWNESMPQYHVGHKQRIKKVREALAASYPGVYMTGASFEGVGIPDCIDQGKSAVSDVLAYLFE

Test system: transgenic soybean plants
Assay: S-3100 herbicide injury of R0 transgenic soybean plants at eleven weeks
Assay type: in vivo
Details: S-3100, eleven weeks; equivalent to non-transgenic control injury ratings
Experimental: The microbial HemY PPO enzymes were expressed in transgenic soybean plants, and the transgenic plants were analyzed for PPO herbicide tolerance. […] For plant transformation, the nucleotide sequences encoding the HemY PPO enzymes were codon optimized for dicot expression. This permitted the side-by-side comparison of the seven different HemY PPO enzymes with thirty-nine different targeting peptides using the same promoter and 3′UTR elements for gene expression
The plant transformation constructs were used to transform soybean excised embryos (germplasm A3555) using A. tumefaciens and standard methods known in the art. Four hundred explants were inoculated for each construct resulting in twelve containers per construct. A sterile PPO herbicide solution was used for herbicide tolerance testing. The herbicide solution consisted of 0.3 g of S-3100 in crop oil concentrate (5.0 mL) and 495 mL of deionized water. This was filtered through a 0.45 micron Nalgene® Rapid-Flow™ Tissue Culture Filter Unit and Surfactant-Free Cellulose Acetate membrane filter unit (VWR, Radnor, Pa., USA). The resulting sterile solution was shaken before application.
Plants in the non-sprayed containers corresponding to constructs having a high passing score of 2 and a few fails as negative controls were transplanted at approximately 7 weeks post transformation. […]

Row | Molecule | injury rating [%]
1 | B1 | ≥ 30
2 | B2 | ≥ 30
